Assay results from paper doi:10.1101/2024.03.24.586400 (bioRxiv, 2024).

Chains of the proteins cited; added tags and fusions are not shown.
UniProt Q13838: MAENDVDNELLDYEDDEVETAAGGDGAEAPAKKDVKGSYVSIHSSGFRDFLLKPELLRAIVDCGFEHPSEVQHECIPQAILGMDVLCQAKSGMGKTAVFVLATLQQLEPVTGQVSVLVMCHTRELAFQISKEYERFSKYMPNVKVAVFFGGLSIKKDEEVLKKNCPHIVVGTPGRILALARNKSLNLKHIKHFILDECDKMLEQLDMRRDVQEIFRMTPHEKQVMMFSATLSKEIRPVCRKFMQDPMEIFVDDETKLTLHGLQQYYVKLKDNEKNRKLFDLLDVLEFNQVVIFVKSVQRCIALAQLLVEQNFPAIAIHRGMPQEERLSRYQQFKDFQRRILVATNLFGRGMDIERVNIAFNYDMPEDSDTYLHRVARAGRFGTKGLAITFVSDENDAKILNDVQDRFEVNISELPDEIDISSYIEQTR
UniProt Q9H814: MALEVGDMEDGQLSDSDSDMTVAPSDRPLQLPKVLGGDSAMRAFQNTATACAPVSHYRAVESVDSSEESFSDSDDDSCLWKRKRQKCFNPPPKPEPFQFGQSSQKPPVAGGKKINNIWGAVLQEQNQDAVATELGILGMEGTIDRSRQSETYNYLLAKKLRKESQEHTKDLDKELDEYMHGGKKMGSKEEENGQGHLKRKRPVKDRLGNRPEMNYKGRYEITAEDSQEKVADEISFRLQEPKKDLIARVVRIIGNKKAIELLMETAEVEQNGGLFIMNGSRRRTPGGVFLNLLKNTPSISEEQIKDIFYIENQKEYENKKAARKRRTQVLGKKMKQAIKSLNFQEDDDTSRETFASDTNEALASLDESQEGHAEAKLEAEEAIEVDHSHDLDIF

B1: SARNP (endogenous) (protein, UniProt P82979 1-210)
chain: MATETVELHKLKLAELKQECLARGLETKGIKQDLIHRLQAYLEEHAEEEANEEDVLGDETEEEETKPIELPVKEEEPPEKTVDVAAEKKVVKITSEIPQTERMQKRAERFNVPVSLESKKAARAARFGISSVPTKGLSSDNKPMVNLDKLKERAQRFGLNVSSISRKSEDDEKLKKRKERFGIVTSSAGTGTTEDTEAKKRKRAERFGIA
B2: LUZP4 (endogenous) (protein, UniProt Q9P127 1-313)
chain: MASFRKLTLSEKVPPNHPSRKKVNFLDMSLDDIIIYKELEGTNAEEEKNKRQNHSKKESPSRQQSKAHRHRHRRGYSRCRSNSEEGNHDKKPSQKPSGFKSGQHPLNGQPLIEQEKCSDNYEAQAEKNQGQSEGNQHQSEGNPDKSEESQGQPEENHHSERSRNHLERSLSQSDRSQGQLKRHHPQYERSHGQYKRSHGQSERSHGHSERSHGHSERSHGHSERSHGHSKRSRSQGDLVDTQSDLIATQRDLIATQKDLIATQRDLIATQRDLIVTQRDLVATERDLINQSGRSHGQSERHQRYSTGKNTITT
B3: UIF (endogenous) (protein, UniProt Q96QD9 1-318)
chain: MNRFGTRLVGATATSSPPPKARSNENLDKIDMSLDDIIKLNRKEGKKQNFPRLNRRLLQQSGAQQFRMRVRWGIQQNSGFGKTSLNRRGRVMPGKRRPNGVITGLAARKTTGIRKGISPMNRPPLSDKNIEQYFPVLKRKANLLRQNEGQRKPVAVLKRPSQLSRKNNIPANFTRSGNKLNHQKDTRQATFLFRRGLKVQAQLNTEQLLDDVVAKRTRQWRTSTTNGGILTVSIDNPGAVQCPVTQKPRLTRTAVPSFLTKREQSDVKKVPKGVPLQFDINSVGKQTGMTLNERFGILKEQRATLTYNKGGSRFVTVG
B4: RBM27 (endogenous) (protein, UniProt Q9P2N5 1-1060)
chain: MLIEDVDALKSWLAKLLEPICDADPSALANYVVALVKKDKPEKELKAFCADQLDVFLQKETSGFVDKLFESLYTKNYLPLLEPVKPEPKPLVQEKEEIKEEVFQEPAEEERDGRKKKYPSPQKTRSESSERRTREKKREDGKWRDYDRYYERNELYREKYDWRRGRSKSRSKSRGLSRSRSRSRGRSKDRDPNRNVEHRERSKFKSERNDLESSYVPVSAPPPNSSEQYSSGAQSIPSTVTVIAPAHHSENTTESWSNYYNNHSSSNSFGRNLPPKRRCRDYDERGFCVLGDLCQFDHGNDPLVVDEVALPSMIPFPPPPPGLPPPPPPGMLMPPMPGPGPGPGPGPGPGPGPGPGPGHSMRLPVPQGHGQPPPSVVLPIPRPPITQSSLINSRDQPGTSAVPNLASVGTRLPPPLPQNLLYTVSERQPMYSREHGAAASERLQLGTPPPLLAARLVPPRNLMGSSIGYHTSVSSPTPLVPDTYEPDGYNPEAPSITSSGRSQYRQFFSRTQTQRPNLIGLTSGDMDVNPRAANIVIQTEPPVPVSINSNITRVVLEPDSRKRAMSGLEGPLTKKPWLGKQGNNNQNKPGFLRKNQYTNTKLEVKKIPQELNNITKLNEHFSKFGTIVNIQVAFKGDPEAALIQYLTNEEARKAISSTEAVLNNRFIRVLWHRENNEQPTLQSSAQLLLQQQQTLSHLSQQHHHLPQHLHQQQVLVAQSAPSTVHGGIQKMMSKPQTSGAYVLNKVPVKHRLGHAGGNQSDASHLLNQSGGAGEDCQIFSTPGHPKMIYSSSNLKTPSKLCSGSKSHDVQEVLKKKQEAMKLQQDMRKKRQEVLEKQIECQKMLISKLEKNKNMKPEERANIMKTLKELGEKISQLKDELKTSSAVSTPSKVKTKTEAQKELLDTELDLHKRLSSGEDTTELRKKLSQLQVEAARLGILPVGRGKTMSSQGRGRGRGRGGRGRGSLNHMVVDHRPKALTVGGFIEEEKEDLLQHFSTANQGPKFKDRRLQISWHKPKVPSISTETEEEEVKEEETETSDLFLPDDDDEDEDEYESRSWRR
B5: NCBP3 (endogenous) (protein, UniProt Q53F19 1-620)
chain: MAAVRGLRVSVKAEAPAGPALGLPSPEAESGVDRGEPEPMEVEEGELEIVPVRRSLKELIPDTSRRYENKAGSFITGIDVTSKEAIEKKEQRAKRFHFRSEVNLAQRNVALDRDMMKKAIPKVRLETIYICGVDEMSTQDVFSYFKEYPPAHIEWLDDTSCNVVWLDEMTATRALINMSSLPAQDKIRSRDASEDKSAEKRKKDKQEDSSDDDEAEEGEVEDENSSDVELDTLSQVEEESLLRNDLRPANKLAKGNRLFMRFATKDDKKELGAARRSQYYMKYGNPNYGGMKGILSNSWKRRYHSRRIQRDVIKKRALIGDDVGLTSYKHRHSGLVNVPEEPIEEEEEEEEEEEEEEEEDQDMDADDRVVVEYHEELPALKQPRERSASRRSSASSSDSDEMDYDLELKMISTPSPKKSMKMTMYADEVESQLKNIRNSMRADSVSSSNIKNRIGNKLPPEKFADVRHLLDEKRQHSRPRPPVSSTKSDIRQRLGKRPHSPEKAFSSNPVVRREPSSDVHSRLGVPRQDSKGLYADTREKKSGNLWTRLGSAPKTKEKNTKKVDHRAPGAEEDDSELQRAWGALIKEKEQSRQKKSRLDNLPSLQIEVSRESSSGSEAES

molecular target: GFP-UAP56 (endogenously tagged EGFP-3C-DDX39B) (human (endogenous in K562)) (UniProt Q13838); experiment: affinity purification with mass spectrometry

binding, binds:
B1
B2
B3
B4
B5

molecular target: GFP-UAP56 (endogenously tagged EGFP-3C-DDX39B) (human (endogenous in K562)) (UniProt Q13838); experiment: affinity purification with mass spectrometry; remark: another data set of the same source

binding, binds:
PHAX (endogenous) (from UniProt Q9H814 1-394)

These are yes or no findings as the source states them, for the method shown. In cells and extracts the contact can be indirect. A yes stands for co-enrichment or nearness to the bait. Other partners may have been found.
